From article PMC11087589, “Molecular basis of bacterial DSR2 anti-phage defense and viral immune evasion” (Nature Communications, 2024) come the findings set out here.

No constants are given. Whether binding was seen depends on the method and setting.

In the assay the target is DSR2^W143G/Y148G/Y552G/V556S/F559G/N563S (Bacillus subtilis) (UniProt P0DXN8). Briefly: SEC; oligomeric state of purified DSR2, its mutants and the DSR2^H171A-Tube complex; Superdex 200 Increase 10/300 GL, 25 mM Tris-HCl pH 7.5, 150 mM NaCl; both purified. For orientation: Size exclusion chromatography separates by hydrodynamic size, large species first.

B1: DSR2^W143G/Y148G/Y552G/V556S/F559G/N563S (enzyme, UniProt P0DXN8 1-1005)
chain: MVKVDLESKRYGEKLKEVFLMLDNNVVECIKEITESSRNGKLVFFVGAGVSTLSDYPQWWRLVDKYHEELYGSPKKGNYSSDEYLRIPQIFYNVKGEMAFDGILKDFFQVDKPTNPIHDKILAMNPAHVITTNYDNLIDTACGKRGKGFSVISAEEDVANATSSRYLLKVHGDFRKGFKGENVVLKEDDYLNYDQNYPLISNLMKTIIATHTIVFIGYGLGDYNINMLLNWVRKLQKDSFHKPFFIRTDPSPIENETLIYYENKGLRIIDAASLIDSNEYDYLERYSAVMDLLIESQENKFITKDDEVIDYIYGKISPLFALQYIRKIDLKHVFEYDYHFEVNGTVVRHKNKGFGYMERFFELKESCDERSKLSKKQYERFNALFNFFEKNGVICMAKDAGTLNTSIEINSLAYHGKYDVMKKFIEEQSVSIEDDYKKAFFLACLGRWEESYDLYSNIILNSIDESNGCVYYLSQINRYRIYQSITQAVTQFNGLGLLTFGRHYKPFTDEFLARIEREMTNFNIDDLFNGMPFEFQKKYKILEFLSDNQFLGDDTSKLGELTSKVRSEMSEGSYSFGMSSDIVVLLRLYDNLRFLYENCLWSVSFHEFHQYIRNSMSLLIEKAEYERTRDIDELGFSFFGKKSGFFMEYYDFVNISRHFKIDDIKNLERSCSIDKIRFGEQEKIEEYLVGIAEEITKQFSANGMNVVFYTQFISEAKAALYFAKYVKLSEEGLGKIVKALLFYFPERDLDIGKRYVWLERLTKCNELPKSIISIIDDFLVLQAEKHIDQNYSEVSSNGLYSRDYGALIKHFEKNFISKRLSEITLCLTQDKQKQIDFLFKLLPLLSTNAKSHLLSFKSVENINDLMNGIRIGLIDEFTPEHEELIIEYLETRKVNYIVEKEKGIQTFSSNDYMSTFGIWYFLEEINNSKMEEFIGMDDQYDFFVDPENFDYKKFIPSWLKNYNDKLLGKIAGNKHMKHHVIEVLKERVKNSNDKRYLEILMNYFI
With B1, the binding entry is “no binding”.
